Experimental data from publication doi:10.1101/2023.10.19.563118.
Results are given in words; binding and its absence hold for the method and conditions named. Binding seen in cells or lysates may run through a third protein. Some results given as binding are weak or reduced against the parent protein; the word gives no strength.

The chains behind the UniProt entries cited, without tags or fusion partners.
UniProt P11388: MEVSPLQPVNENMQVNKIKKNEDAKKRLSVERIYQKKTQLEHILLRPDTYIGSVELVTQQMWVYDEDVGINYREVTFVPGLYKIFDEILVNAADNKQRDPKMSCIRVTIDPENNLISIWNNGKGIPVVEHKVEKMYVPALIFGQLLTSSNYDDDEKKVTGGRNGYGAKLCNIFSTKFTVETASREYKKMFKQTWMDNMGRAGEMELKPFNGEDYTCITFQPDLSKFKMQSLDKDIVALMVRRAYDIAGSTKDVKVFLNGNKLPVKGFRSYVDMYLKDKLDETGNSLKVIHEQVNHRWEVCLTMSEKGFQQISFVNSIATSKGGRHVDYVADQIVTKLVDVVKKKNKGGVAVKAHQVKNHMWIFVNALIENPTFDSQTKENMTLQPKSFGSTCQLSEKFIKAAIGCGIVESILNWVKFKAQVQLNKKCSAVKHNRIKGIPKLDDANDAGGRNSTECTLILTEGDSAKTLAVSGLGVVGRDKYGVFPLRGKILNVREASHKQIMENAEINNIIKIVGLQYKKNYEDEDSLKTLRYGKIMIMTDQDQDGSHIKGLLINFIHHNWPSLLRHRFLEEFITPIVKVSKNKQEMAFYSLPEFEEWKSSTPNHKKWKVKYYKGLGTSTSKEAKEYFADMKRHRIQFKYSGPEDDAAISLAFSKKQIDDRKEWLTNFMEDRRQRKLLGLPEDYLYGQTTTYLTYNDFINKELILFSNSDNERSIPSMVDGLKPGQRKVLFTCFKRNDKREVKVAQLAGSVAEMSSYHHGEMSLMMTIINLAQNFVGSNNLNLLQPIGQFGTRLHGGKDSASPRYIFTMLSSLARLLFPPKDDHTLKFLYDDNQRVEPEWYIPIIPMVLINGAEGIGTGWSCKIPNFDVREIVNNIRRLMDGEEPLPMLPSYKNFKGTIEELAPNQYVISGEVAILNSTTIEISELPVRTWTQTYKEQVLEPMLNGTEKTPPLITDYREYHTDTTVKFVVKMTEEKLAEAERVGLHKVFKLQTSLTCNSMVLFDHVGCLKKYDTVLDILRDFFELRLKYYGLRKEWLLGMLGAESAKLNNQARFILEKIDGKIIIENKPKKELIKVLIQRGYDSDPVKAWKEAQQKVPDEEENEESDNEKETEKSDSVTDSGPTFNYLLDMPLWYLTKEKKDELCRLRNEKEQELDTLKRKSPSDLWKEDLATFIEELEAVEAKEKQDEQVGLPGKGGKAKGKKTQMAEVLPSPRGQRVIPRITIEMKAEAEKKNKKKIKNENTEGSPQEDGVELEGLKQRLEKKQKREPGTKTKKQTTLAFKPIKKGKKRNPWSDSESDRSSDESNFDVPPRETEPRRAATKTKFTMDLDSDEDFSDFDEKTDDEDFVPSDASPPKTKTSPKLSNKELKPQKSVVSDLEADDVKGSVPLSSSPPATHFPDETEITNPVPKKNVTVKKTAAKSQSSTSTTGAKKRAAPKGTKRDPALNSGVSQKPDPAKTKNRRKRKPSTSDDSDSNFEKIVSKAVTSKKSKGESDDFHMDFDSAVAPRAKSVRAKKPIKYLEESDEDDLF
UniProt P11387: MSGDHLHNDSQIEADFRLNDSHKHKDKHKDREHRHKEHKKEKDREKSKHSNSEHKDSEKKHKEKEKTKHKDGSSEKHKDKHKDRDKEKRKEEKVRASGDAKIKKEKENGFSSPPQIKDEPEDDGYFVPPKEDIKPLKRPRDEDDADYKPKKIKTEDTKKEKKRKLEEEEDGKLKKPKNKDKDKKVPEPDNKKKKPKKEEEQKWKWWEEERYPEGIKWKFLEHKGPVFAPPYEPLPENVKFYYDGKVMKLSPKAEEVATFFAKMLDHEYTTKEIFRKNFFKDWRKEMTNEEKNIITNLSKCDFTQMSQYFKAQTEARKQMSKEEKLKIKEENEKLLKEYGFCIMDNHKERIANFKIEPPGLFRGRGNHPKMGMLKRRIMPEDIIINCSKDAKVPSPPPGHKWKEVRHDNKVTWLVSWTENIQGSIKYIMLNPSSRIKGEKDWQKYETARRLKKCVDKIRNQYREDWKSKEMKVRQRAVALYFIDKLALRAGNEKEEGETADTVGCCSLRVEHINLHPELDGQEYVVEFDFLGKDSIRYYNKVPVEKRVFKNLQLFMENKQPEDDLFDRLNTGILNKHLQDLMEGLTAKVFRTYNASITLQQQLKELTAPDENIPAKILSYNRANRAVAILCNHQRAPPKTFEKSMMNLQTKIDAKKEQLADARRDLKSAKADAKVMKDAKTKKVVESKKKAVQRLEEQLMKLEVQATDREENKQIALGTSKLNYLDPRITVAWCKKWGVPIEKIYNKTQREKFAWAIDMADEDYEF
UniProt P39748: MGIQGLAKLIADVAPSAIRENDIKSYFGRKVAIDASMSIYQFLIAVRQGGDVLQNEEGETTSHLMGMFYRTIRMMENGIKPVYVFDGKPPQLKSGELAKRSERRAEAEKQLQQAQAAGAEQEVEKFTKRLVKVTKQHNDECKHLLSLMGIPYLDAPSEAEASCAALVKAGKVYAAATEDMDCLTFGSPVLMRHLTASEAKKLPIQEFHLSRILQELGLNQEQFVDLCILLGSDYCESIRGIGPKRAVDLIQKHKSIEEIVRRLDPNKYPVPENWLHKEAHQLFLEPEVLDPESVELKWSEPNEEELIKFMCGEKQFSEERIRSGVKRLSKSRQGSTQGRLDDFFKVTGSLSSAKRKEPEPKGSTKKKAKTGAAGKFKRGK

Assays:
[1] = target: topoisomerase II alpha (TOP2α) (human (endogenous in U2OS)) (UniProt P11388); experiment: proximity ligation
[2] = target: topoisomerase I (TOP1) (human (endogenous in U2OS)) (UniProt P11387); experiment: proximity ligation

binding [1] | binding [2] | Substance
binds | binds | FEN1-FLAG WT (from UniProt P39748 1-380)
binds | binds | flap endonuclease 1 (FEN1) (from UniProt P39748 1-380)
